From publication doi:10.1101/2024.10.01.616059 (bioRxiv, 2024)
No constants are given. Whether binding was seen depends on the method and setting. Binding can be weak; no strength is given.

Target: T1, phosphoribosyl pyrophosphate synthetase 2 (PRPS2), mouse, endogenous (mouse (endogenous in NIH3T3 and C57BL/6 tissue)) (UniProt Q9CS42)
T1 sequence: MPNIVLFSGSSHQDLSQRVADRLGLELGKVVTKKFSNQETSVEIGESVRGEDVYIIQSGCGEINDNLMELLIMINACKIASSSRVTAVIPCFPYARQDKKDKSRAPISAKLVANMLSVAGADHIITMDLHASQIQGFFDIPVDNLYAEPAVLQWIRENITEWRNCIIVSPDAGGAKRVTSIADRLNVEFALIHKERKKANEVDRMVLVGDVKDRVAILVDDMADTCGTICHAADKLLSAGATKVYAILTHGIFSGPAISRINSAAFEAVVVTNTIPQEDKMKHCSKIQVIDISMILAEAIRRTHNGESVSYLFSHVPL
Experiment: SEC; native whole-cell lysates of NIH3T3 AP1/AP2 KO cells stably expressing one exogenous AP1 or AP2 isoform or AP1/AP2 chimera, on Superose 6 Increase 3.2/300; fractions immunoblotted

Q: How did the binding turn out when “short isoform of PRPSAP2, ALFA-tagged (exogenous)” was run?
A: binds
